From the supplement of paper PMC12819154, “High-throughput peptide-centric local stability assay extends protein–ligand identification to membrane proteins, tissues and bacteria” (Nature Structural & Molecular Biology, 2025)
The other results are listed elsewhere or left out. Most values lie at the level of the controls, where differences are scatter.

Protein sequences, listed by entry. Tags and fused reporters are not part of them. Lines headed by an entry give the natural chain unless they say otherwise; changes in a name come on top.
UniProt Q9CPP0: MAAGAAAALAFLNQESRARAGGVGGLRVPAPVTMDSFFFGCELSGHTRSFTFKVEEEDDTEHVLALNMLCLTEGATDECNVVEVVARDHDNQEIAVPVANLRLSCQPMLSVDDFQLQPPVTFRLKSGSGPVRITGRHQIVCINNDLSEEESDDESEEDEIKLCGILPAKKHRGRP
UniProt Q9CR23: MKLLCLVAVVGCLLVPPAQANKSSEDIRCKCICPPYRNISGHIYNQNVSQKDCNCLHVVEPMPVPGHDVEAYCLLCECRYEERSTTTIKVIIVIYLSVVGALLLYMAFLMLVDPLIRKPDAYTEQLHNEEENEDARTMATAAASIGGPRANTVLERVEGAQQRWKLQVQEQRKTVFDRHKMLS
UniProt Q9CQ49: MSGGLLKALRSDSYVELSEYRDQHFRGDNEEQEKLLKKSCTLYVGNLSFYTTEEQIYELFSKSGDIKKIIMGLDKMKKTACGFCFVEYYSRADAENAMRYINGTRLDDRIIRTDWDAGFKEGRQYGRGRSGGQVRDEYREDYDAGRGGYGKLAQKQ
UniProt Q9CPQ8: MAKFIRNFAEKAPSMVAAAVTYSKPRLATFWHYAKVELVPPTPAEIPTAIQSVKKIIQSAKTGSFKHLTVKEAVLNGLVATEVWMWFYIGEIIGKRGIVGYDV
UniProt Q9CQE9: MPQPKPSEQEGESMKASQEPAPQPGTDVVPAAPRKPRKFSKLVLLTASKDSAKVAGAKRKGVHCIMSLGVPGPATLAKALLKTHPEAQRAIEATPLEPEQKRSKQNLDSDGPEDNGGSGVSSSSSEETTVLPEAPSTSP
UniProt Q9CQA5: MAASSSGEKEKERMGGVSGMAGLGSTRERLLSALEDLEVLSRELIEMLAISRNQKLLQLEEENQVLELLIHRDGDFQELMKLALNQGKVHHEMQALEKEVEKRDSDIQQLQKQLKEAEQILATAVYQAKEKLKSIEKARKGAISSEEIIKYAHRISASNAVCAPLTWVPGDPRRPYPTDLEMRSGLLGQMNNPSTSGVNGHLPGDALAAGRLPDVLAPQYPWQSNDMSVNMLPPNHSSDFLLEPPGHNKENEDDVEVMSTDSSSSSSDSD
UniProt Q99LJ6: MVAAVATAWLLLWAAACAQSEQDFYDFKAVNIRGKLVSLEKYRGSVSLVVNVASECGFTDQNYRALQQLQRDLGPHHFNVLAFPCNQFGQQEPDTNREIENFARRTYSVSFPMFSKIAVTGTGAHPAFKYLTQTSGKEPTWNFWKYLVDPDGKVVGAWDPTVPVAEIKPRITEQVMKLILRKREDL
UniProt Q99LW0: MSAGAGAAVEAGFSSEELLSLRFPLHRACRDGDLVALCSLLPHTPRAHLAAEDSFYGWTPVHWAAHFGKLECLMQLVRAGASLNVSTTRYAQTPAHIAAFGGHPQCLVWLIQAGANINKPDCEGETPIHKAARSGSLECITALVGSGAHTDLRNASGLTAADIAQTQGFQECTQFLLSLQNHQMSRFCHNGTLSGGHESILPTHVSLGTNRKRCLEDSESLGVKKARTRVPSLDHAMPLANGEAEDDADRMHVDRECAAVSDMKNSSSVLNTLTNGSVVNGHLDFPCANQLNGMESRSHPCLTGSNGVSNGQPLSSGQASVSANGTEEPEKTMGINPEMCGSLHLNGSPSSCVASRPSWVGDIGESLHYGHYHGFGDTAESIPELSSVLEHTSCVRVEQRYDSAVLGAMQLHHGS
UniProt Q99P81: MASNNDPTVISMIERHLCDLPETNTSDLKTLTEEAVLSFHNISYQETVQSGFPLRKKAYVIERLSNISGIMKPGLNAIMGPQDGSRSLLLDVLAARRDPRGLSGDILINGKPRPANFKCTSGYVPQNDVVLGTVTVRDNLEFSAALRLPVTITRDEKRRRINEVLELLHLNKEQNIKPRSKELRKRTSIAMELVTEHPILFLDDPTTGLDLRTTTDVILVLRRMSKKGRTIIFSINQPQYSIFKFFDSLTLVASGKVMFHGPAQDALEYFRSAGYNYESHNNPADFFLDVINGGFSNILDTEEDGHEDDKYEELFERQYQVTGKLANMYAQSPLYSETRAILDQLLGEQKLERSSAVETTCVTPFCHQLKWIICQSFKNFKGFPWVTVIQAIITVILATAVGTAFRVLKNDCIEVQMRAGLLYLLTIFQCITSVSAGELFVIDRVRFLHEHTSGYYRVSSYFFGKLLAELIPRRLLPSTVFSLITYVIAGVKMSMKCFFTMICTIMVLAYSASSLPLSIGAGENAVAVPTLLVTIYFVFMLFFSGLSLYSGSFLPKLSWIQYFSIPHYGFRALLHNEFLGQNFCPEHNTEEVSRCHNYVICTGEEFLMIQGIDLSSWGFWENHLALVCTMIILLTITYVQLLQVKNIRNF
UniProt Q9CQ26: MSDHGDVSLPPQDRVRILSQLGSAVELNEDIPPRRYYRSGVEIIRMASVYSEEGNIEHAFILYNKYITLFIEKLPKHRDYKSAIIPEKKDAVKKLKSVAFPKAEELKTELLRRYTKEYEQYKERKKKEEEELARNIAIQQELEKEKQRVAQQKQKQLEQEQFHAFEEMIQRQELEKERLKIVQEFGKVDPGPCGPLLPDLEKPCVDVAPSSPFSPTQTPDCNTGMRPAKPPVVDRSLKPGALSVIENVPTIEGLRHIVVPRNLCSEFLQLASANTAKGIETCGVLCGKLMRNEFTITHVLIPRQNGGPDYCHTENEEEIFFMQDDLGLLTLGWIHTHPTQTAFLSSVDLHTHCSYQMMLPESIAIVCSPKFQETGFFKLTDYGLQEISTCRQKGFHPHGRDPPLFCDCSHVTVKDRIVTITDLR
UniProt Q9CR09: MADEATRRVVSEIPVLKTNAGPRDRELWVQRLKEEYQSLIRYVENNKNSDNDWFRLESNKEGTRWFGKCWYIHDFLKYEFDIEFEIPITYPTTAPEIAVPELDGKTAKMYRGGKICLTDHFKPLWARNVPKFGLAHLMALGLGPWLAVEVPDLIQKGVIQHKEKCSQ

Compound: CN[C@@H]1C[C@H]2O[C@@](C)([C@@H]1OC)n1c3ccccc3c3c4c(c5c6ccccc6n2c5c31)C(=O)NC4 [staurosporine]
Test: log2 fold change of tryptic peptide abundance, ligand vs vehicle (limited proteolysis) (log2 ratio); higher = more trypsin-susceptible (destabilized)
Conditions: ligand concentration: 20 uM; sample: mouse liver crude lysate; replicate design: treated separately

Target | log2 fold change
UniProt Q9CPP0 (peptide sequence: DHDNQEIAVPVANLR, peptide start residue: 88) | -0.235
UniProt Q9CR23 (peptide sequence: WKLQVQEQR, peptide start residue: 180) | -0.128
UniProt Q9CQ49 (peptide sequence: KIIMGLDK, peptide start residue: 68) | 0.186
UniProt Q9CPQ8 (peptide sequence: APSMVAAAVTYSKPR, peptide start residue: 12) | 0.221
UniProt Q9CQE9 (peptide sequence: PQPKPSEQEGESMK, peptide start residue: 2) | -0.791
UniProt Q9CQA5 (peptide sequence: DGDFQELMK, peptide start residue: 73) | 0.35
UniProt Q99LJ6 (peptide sequence: TYSVSFPMFSK, peptide start residue: 106) | 0.294
UniProt Q99LW0 (peptide sequence: CLEDSESLGVKK, peptide start residue: 214) | 0.138
UniProt Q99P81 (peptide sequence: AILDQLLGEQKLER, peptide start residue: 340) | 0.15
UniProt Q9CQ26 (peptide sequence: NIAIQQELEKEK, peptide start residue: 135) | -0.186
UniProt Q9CR09 (peptide sequence: NSDNDWFR, peptide start residue: 48) | -0.209
